Measured data: PubChem BioAssay AID1259254 (NCATS, 2017)
Purpose: 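Finding genes that stop cells copying their DNA twice in one cycle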 (primary screen). System: human HCT116 colorectal cancer cells. Reagents: single siRNA against human genes. Time to read-out: 3 days. Read-out: 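Nuclei stained with Hoechst and imaged; cell-cycle phase assigned by DNA content; G2 share scaled per plate, non-targeting siRNA 0%, GMNN siRNA 100%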. Reading the numbers: G2 robust z-score and G2 cells, % of GMNN control: higher = more G2 cells, more excess DNA replication; raw share of cells in G2: higher = larger share of cells with G2 DNA content. Rule for the call: 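Active siRNAs have a G2 robust z of 5 or more median absolute deviations over the median, which in these data means about 38% or higher of GMNN control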.
In all, the deposit lists about 59,000 reagents; this is a part drawn at random. About 1,550 of them (2.6%) count as active. 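G2 share is only a proxy for re-replication; each gene was hit by three separate siRNAs, and active genes were retested.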 The raw values are shown without normalisation. Reagents against one gene are numbered here. No sequences are given here. The record does not give: the amount of reagent.

target | siRNA no. | G2 robust z-score | G2 cells, % of GMNN control | raw share of cells in G2 (%) | Outcome
TRIM41 | 1 | -0.0425 | 2.67 | 5.49 | inactive
TRIM41 | 2 | 1.17 | 11.2 | 9.78 | inactive
TRIM41 | 3 | 0.0155 | 3.08 | 7.1 | inactive
KRTAP4-11 | 1 | 0.184 | 4.26 | 5.89 | inactive
KRTAP4-11 | 2 | -0.616 | -1.37 | 2.57 | inactive
KRTAP4-11 | 3 | 0.0696 | 3.46 | 4.02 | inactive
AMACR | 1 | -0.616 | -1.36 | 3.4 | inactive
AMACR | 2 | -0.582 | -1.12 | 3.78 | inactive
AMACR | 3 | -0.879 | -3.22 | 5.08 | inactive
OR9I1 | 1 | 0.054 | 3.35 | 4.79 | inactive
OR9I1 | 2 | 2.04 | 17.3 | 9.07 | inactive
OR9I1 | 3 | -0.217 | 1.44 | 3.65 | inactive
KLHL12 | 1 | -0.000691 | 2.96 | 6.87 | inactive
KLHL12 | 2 | -0.438 | -0.115 | 4.31 | inactive
KLHL12 | 3 | 0.752 | 8.26 | 7.23 | inactive
CADPS2 | 1 | -0.888 | -3.28 | 1.96 | inactive
CADPS2 | 2 | -0.307 | 0.811 | 3.45 | inactive
CADPS2 | 3 | 0.274 | 4.89 | 5.24 | inactive
SELENOF | 1 | -0.562 | -0.988 | 4.88 | inactive
SELENOF | 2 | -0.238 | 1.29 | 4.48 | inactive
SELENOF | 3 | 8.36 | 61.8 | 25.9 | active
ERICH2 | 1 | 4.01 | 31.2 | 12.2 | inactive
ERICH2 | 2 | 0.58 | 7.05 | 6.21 | inactive
ERICH2 | 3 | -0.869 | -3.15 | 1.83 | inactive
ERICH2 | 4 | 0.48 | 6.34 | 5.19 | inactive
ERICH2 | 5 | 1.85 | 16 | 9.72 | inactive
ERICH2 | 6 | 0.316 | 5.19 | 5.14 | inactive
SLBP | 1 | 0.757 | 8.3 | 8.81 | inactive
SLBP | 2 | -0.0973 | 2.28 | 4.8 | inactive
SLBP | 3 | 1.51 | 13.6 | 8.15 | inactive
TPRN | 1 | -0.353 | 0.481 | 3.82 | inactive
TPRN | 2 | -0.153 | 1.89 | 3.78 | inactive
TPRN | 3 | -0.949 | -3.71 | 2.14 | inactive
ITGB1BP1 | 1 | 0.905 | 9.34 | 9.55 | inactive
ITGB1BP1 | 2 | 2.15 | 18.1 | 11.5 | inactive
ITGB1BP1 | 3 | 2.27 | 18.9 | 10.3 | inactive
SYCN | 1 | -0.759 | -2.38 | 3.17 | inactive
SYCN | 2 | -0.098 | 2.28 | 4.26 | inactive
SYCN | 3 | 1.8 | 15.6 | 10.5 | inactive
UNC5D | 1 | 0.915 | 9.41 | 8.14 | inactive
UNC5D | 2 | -0.88 | -3.22 | 3.35 | inactive
UNC5D | 3 | 4.79 | 36.7 | 23.4 | inactive
ZNF30 | 1 | -0.174 | 1.75 | 3.69 | inactive
ZNF30 | 2 | -0.369 | 0.37 | 3.29 | inactive
ZNF30 | 3 | 0.977 | 9.84 | 6.98 | inactive
RAD54B | 1 | -0.266 | 1.1 | 4.55 | inactive
RAD54B | 2 | 0.722 | 8.05 | 9.81 | inactive
RAD54B | 3 | 0.21 | 4.44 | 5.44 | inactive
ANAPC1 | 1 | 0.358 | 5.48 | 6.97 | inactive
ANAPC1 | 2 | 1.17 | 11.2 | 9.64 | inactive
ANAPC1 | 3 | 6.02 | 45.3 | 14.7 | active
LAMP3 | 1 | -0.138 | 2 | 3.88 | inactive
LAMP3 | 2 | 0.944 | 9.61 | 7.53 | inactive
LAMP3 | 3 | 1.08 | 10.6 | 8.55 | inactive
TAF1B | 1 | 3.22 | 25.6 | 16.5 | inactive
TAF1B | 2 | 2.08 | 17.6 | 10.9 | inactive
TAF1B | 3 | -0.119 | 2.13 | 4.1 | inactive
MYH15 | 1 | -0.795 | -2.63 | 2.97 | inactive
MYH15 | 2 | -0.0365 | 2.71 | 5.06 | inactive
MYH15 | 3 | 6.04 | 45.5 | 24.6 | active
PYGM | 1 | 0.159 | 4.09 | 6.38 | inactive
PYGM | 2 | 1.41 | 12.9 | 8.44 | inactive
PYGM | 3 | 0.0611 | 3.4 | 5.98 | inactive
CAMK2N1 | 1 | -0.749 | -2.3 | 4.87 | inactive
CAMK2N1 | 2 | -0.727 | -2.15 | 4.41 | inactive
CAMK2N1 | 3 | -0.607 | -1.3 | 3.26 | inactive
CBLIF | 1 | 1.39 | 12.8 | 11.3 | inactive
CBLIF | 2 | -0.292 | 0.913 | 4.42 | inactive
CBLIF | 3 | -0.365 | 0.4 | 3.68 | inactive
